The source of these data is the RNAGym collection of RNA variant scans (doi:10.1126/science.aae0568).

Variants at the background level are over-represented here.

B1: tRNA (parent)
chain: GUUCCGUUGGCGUAAUGGUAACGCGUCUCCCUCCUAAGGAGAAGACUGCGGGUUCGAGUCCCGUACGGAACG

In the data set the parent is B1. In words: yeast fitness relative to wild type (ratio to wild type); higher = fitter; tRNA-Arg(CCU), competitive growth, 37 C, YPD. The method, boiled down:
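For this measurement, the tRNA-Arg(CCU) gene was varied by chemical synthesis at a 3% per-site mutation rate across 69 sites, and each variant was placed at the native genomic locus in Saccharomyces cerevisiae. The pooled strains went through a 24-hour competition in YPD at 37°C in six parallel replicates, with amplicons from start and end populations read by 100-nucleotide paired-end sequencing. Darwinian fitness relative to wild type followed from the change in each genotype's frequency. Genotypes needed ≥ 100 starting reads, and estimates < 0.5 were set to 0.5.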
Turning to GUUUCCUUGGCGUUAUGGUAACGGGUCUCCCUCCUAAGGAGAAGACUGCGGGUUCGACUCCCGUACGCAACG [C4U G6C A14U C24G G58C G68C], the yeast fitness is not above 0.5.

GUUCCGUUGGCGUAAUGGAAACGCGUCUCCCUCCUAAGGAGAAGACUGCGGGUUCAAGUCCCGUACGGAACG [U19A G56A]: the yeast fitness stood at 1.

For GUUCCGUUGGCGUAAUGGUAACGCGUCGCCCUCCUAAGGAGAAGACUGCGGGUUCGUGUCCCAUACGGAACG [U28G A57U G63A], the yeast fitness stood at 0.874.

For the variant GUUCCGUUGGUGUAAUGGUAACGCGUCUCGCUCCUAAGGCGAAGACUGUGGGUUCGAGUCCCGUACGGAACG [C11U C30G A40C C49U], the yeast fitness is not above 0.5.

As to GUUCCGUUCGCGUAAUGGUAAAGCGUCUCCCUCAUAAGGAGAAGACUGCGGGUUCGAGUCCCGUACGGAGCG [G9C C22A C34A A70G], the yeast fitness was not above 0.5.

Consider GUUACGUUGGCGUUAUGGUAACGCGUCUCACUCCUAAGGAGAAGACUGCGGGUUCGAGUCCCGUACGGAACG [C4A A14U C30A], for which the yeast fitness is not above 0.5.

Take GUUCCGUUGGAGUAAUGGUAACGCGUCUCCCUCUUAAGGAGGAGACUGCGGGUUCGAGUCCCGUACGGAACG [C11A C34U A42G]: the yeast fitness was not above 0.5.

For the variant GUUACGUUCGGGUAAUGGUAACGCGUCUCCCUCCUAAGGAGAAGACCGCGGGUUCGAGUCCCGUACGGAACG [C4A G9C C11G U47C], the yeast fitness was not above 0.5.

GUUCCAUUGGCAUAAUGGUGAGGCGACUCCCUCCUAAGGAGAAGACUCCGGGUUCGAGUCCCGUACGAACCG [G6A G12A A20G C22G U26A G48C G68A A70C]: the yeast fitness is not above 0.5.

For the variant GUUCCGUUGGCCUAAUGGUAACGCGUCUCCCUCCUCAGGUGAAGACUGCGGGUUCGAGUCCCGUACGGAACG [G12C A36C A40U], the yeast fitness was not above 0.5.

In the case of GUACCGAUGGCGUAUUGGUAACGCGCCUGCUUCCUAAGGAGAAGACUGCGGGUUCGAGUCCCGUACGGAACG [U3A U7A A15U U26C C29G C31U], the yeast fitness was not above 0.5.

With GGUACGUUGGCGUAAUGGUAACGCGUCUCCCUCCUAUGGAGAAGACUGCGGGUUCGAGUCCCGUACGGAACG [U2G C4A A37U], the yeast fitness was not above 0.5.

For GUUCCGUUGGCGUAACGGUAACGCGUCCCCCUCCUAAGGAGAAGACUGCGGGUUUGCAUCCCGUACGGAACG [U16C U28C C55U A57C G58A], the yeast fitness was not above 0.5.

On to GUUCCGUUGGCGUACUGGUAACGCAUCUCCCUCCUAAGGAGAAGACUCCGGGUUCGAGUCCCGUAUCGAGCG [A15C G25A G48C C66U G67C A70G], for which the yeast fitness was not above 0.5.

GUUGCGUUGGCGUAAUGGAAACGCGUCUCCCUCCUAAGGAGACGACUGCGGGUUCGAGUCCCGUACGGAACG [C4G U19A A43C]: the yeast fitness was not above 0.5.

Take GUUCCGUUGGCGUAAUGGUAACGCGUCUCCCUCUUAAGGAGAAGACGGCGGGUUCGAGUUCGGUACGGAACG [C34U U47G C60U C62G]: the yeast fitness was not above 0.5.

As for GUUCCGUUGGCGUAAUGGUAUCGCGUCUCCCUCUUAACGAGAAGACUGCGGGUUCGAGUCCCGUACGGAACG [A21U C34U G38C], the yeast fitness was not above 0.5.

Turning to GUUCCGUUGGCGGAAUCGUAACGCGACUCCCUCCUAAGGAGAAGACUGCGGGUUCGAGUCCCGUACGGAACG [U13G G17C U26A], the yeast fitness was not above 0.5.

On to GUUGCGUUGGCGUAAUCGUAACGCGUCUCCCUCCUAUGGAGAAGACUGCGGGUUCGAGUCCCGUACGGUACG [C4G G17C A37U A69U], for which the yeast fitness was not above 0.5.

Consider GUUCCGUUGGCGUAACGGUAACGCGUCAGCCUCCUAAGGAGAAGACUGCGGGUUCGACUCCCGUACGGAACG [U16C U28A C29G G58C], for which the yeast fitness is not above 0.5.

In the case of GUUGCGUUGGCGUAAUGGUAACGCGUCUCCCUCCUACGGAGAAGACUGCGGGUUCGAGUCACGUACGGAACG [C4G A37C C61A], the yeast fitness is not above 0.5.

As to GUUCCGUUGGCGUAAUGGUAACGCGUCUCCCUCCUAAGGAGAAGACUGCGGGUUCGAGUUACGUACCGAACG [C60U C61A G67C], the yeast fitness is not above 0.5.

For GUUCCGAUGGCGUAGUGGUAACACGUCUCCCUCCUAAGGAGAAGACUGCGGGUUCGAGUCCCCUACGGAACG [U7A A15G G23A G63C], the yeast fitness is 0.557.

Turning to GUUCGGUUGGUGUAAUGGUAACGCGUCUCCCUCCUACGGAGAAGACUGCGGGUACGAGUCCCGUACGGAACG [C5G C11U A37C U54A], the yeast fitness is not above 0.5.

Turning to GUUCCGUUGGCGUAAUGGUUACGCGUAUCCCUCCUAAGGUGAAGAAUGCGGGUUCGAGUCCCGUACGGAACG [A20U C27A A40U C46A], the yeast fitness is not above 0.5.

As for GUUCCGUUGGGGUAAUGCUAACGCGCCUCCGUCCUAAGGAGAAGAUUGCGGGUUUGAGUCCCGUACGGAACG [C11G G18C U26C C31G C46U C55U], the yeast fitness is not above 0.5.

For GUUCAGUUGGCGUAAUGGUAUCGCGUCUCCCUCCUAAGCAGAAGACUGCGGGUUUGAGUCCCGUACGGAACG [C5A A21U G39C C55U], the yeast fitness is not above 0.5.

Regarding GUUCCGUUGGCGAAAUGGUAACGAGUCUCCCUCCUAAGGAGAAGCCUGCGGGUUCGAGUCCCGUACGGAACG [U13A C24A A45C], the yeast fitness is not above 0.5.

On to GUUCCGUUGGCGUAAUGGUAAUGCAUCUCCCUCUUAAGGAGAAGACUGCGGGUUCGUGUCCCGUCGGGAACG [C22U G25A C34U A57U A65C C66G], for which the yeast fitness is not above 0.5.

With GUUCCGUUGGCGUUAUAGUAAUGCGUCUCCCUGCUAAGGAGAAGACUGCGGGUUCGAGUCCCGUACUGAACG [A14U G17A C22U C33G G67U], the yeast fitness turned out to be 0.613.

Consider GUUCCGUUGGCAUAAUGGUAACGCGUCUCCCUCCUAAGGAGAAGACUGAGGGUUCGAGUGCCGUACGGAACG [G12A C49A C60G], for which the yeast fitness was not above 0.5.

Consider GUUCCGUUGGCGUAAUGGUAACGCGUCUCUCUCUUAUGGAGAAGACUGCGGGUUCGAGUCCCGUACGAAACG [C30U C34U A37U G68A], for which the yeast fitness was not above 0.5.

In the case of GUUCUGUUGGCGUUAUGGUAACGCGUCUCCCACCUAAGGAGAAGACUGCGGGUCUGAGUCCCGUACGGAACG [C5U A14U U32A U54C C55U], the yeast fitness was not above 0.5.

As to GUUCCGUUGGCGUAAUGGUAACGCGUCUCCCUUCUAAGGAGAAGACUGCGGGUUCGAGUCCCAUAUGGAACG [C33U G63A C66U], the yeast fitness was not above 0.5.

Turning to GUUCAGUUGGCGAAAUGGUAACGCGUCUCCCUCCUAAGGAGAAGCCUGCGGGUUCGAGUCCCGUUCGGAACG [C5A U13A A45C A65U], the yeast fitness was not above 0.5.

As for GUUCCGUUCGCGUAAUGGUAAGGCGUCUCCCUCCUAAGGAGUAGACUGCGGGUUCGAGUCCCGAACAGAACG [G9C C22G A42U U64A G67A], the yeast fitness was not above 0.5.

As for GUUCCGUUGGCGUAAUGGUAACGCGUCUCCCUCCUAAGGAGAAGACGGGGGGUUCGAGUGCCGUACGGAUCG [U47G C49G C60G A70U], the yeast fitness was not above 0.5.
